{"source": "patent US20140010806A1", "about": "“Treatment of Ocular Diseases” (priority 2012, published 2014)", "system": "NF-κB", "assay": "NF-κB-bla THP-1 β-lactamase reporter assay, activation of NF-κB by TNFα or LPS", "format": "cell-based, human", "details": "concentrations above the IC50", "source_text": "Reduction of inflammation. Inhibition of NF-κB by 17α-ethynylandrost-5-ene-3β,7β,17β-triol in vitro. A number of compounds were used to inhibit activation of NF-κB by TNF-α or LPS in human cells in vitro. Activation of NF-κB increases expression of a number of genes that mediate inflammation. This protocol used human THP-1 cells, which are human mononuclear blood cells with a monocyte phenotype. The cell line, referred to as NF-κB-bla THP-1, contained a β-lactamase reporter gene under the control of the NF-κB response element (Invitrogen, CellSensor™, product No. K1176). In this cell line, the β-lactamase reporter gene is stably integrated in the THP-1 cells. This cell line was used to detect agonists or antagonists of the NF-κB signaling pathway. These NF-κB-bla THP-1 cells respond to the presence of tumor necrosis factor alpha (TNFα) or bacterial lipopolysaccharide (LPS) by increased expression of the β-lactamase reporter gene. The level of β-lactamase enzyme activity was measured by fluorescence resonance energy transfer ratiometric detection. […]\nThe NF-κB-bla THP-1 cells were maintained by passaging or feeding as needed. […] The cells were plated at 20,000 cells/well in a 384-well Black-wall, clear bottom assay plates (Costar #3712-TC low fluorescence background plates) approximately 24 hours before adding either TNFα at 10 ng/mL or LPS at 0.2 ng/mL to activate NF-κB. […]", "note": "Some of these results come from one statement about several compounds together."}
{"smiles": "C[C@]12CC[C@H]3[C@@H]([C@@H](O)C=C4C[C@H](O)CC[C@@]43C)[C@@H]1C[C@@H](O)[C@@H]2O", "note": "[3α,7β,16α,17β-tetrahydroxyandrost-5-ene]", "values": [{"measurement": "maximum inhibition of NF-κB", "value": "less than 80%"}]}
